Paper PMC12040169 (PLOS Biology, 2025)
The other results are listed elsewhere or left out.

Each compound was assayed on T1, CTL2-GFP (C. trachomatis L2/434/Bu, GFP-expressing). Conditions: bulk GFP, single well; 28.5 h, 10 µM; inhibitor.
T1 construct: L2/434/Bu, GFP-expressing
Parameters: species or system HeLa; Intracellular C. trachomatis growth in HeLa cells, bulk GFP fluorescence relative to DMSO
For N#Cc1cnn2c(O)cc(Cc3ccccc3)nc12 [CBK287942], the “% of control remaining” value was 99.0336%.
For Nc1nc2c(nc(OCc3ccccc3)n2C2OC(CO)C(O)C2O)c(=O)[nH]1 (stereo not shown) [CBK201247], the “% of control remaining” value was 134.501%.
With O=C(CCN1CCCCC1)NCC1OCCc2ccccc21 (stereo not shown) [CBK013619] the “% of control remaining” value was 122.371%.
In the case of CC(Oc1ccc(/C=N/n2cnnc2)cc1)C(=O)O (stereo not shown) [CBK263927], the “% of control remaining” value is reported as 129.612%.
c1csc(Sc2nc3ccccc3nc2N2CCCC2)c1 [CBK115225] was tested, and the “% of control remaining” value was 121.472%.
For CC(C)(C)c1nnc(NS(=O)(=O)c2ccc([N+](=O)[O-])cc2)s1 [CBK045500], the “% of control remaining” value was 95.8257%.
COc1ccccc1CN(Cc1cccnc1)C(=O)CCN1CCCO1 [CBK306959] was tested, and the “% of control remaining” value was 105.855%.
In the case of Cc1cc(Cl)cc(Cl)c1S(=O)(=O)Nc1nc(CC(=O)O)cs1 [CBK000573], the “% of control remaining” value is reported as 73.0013%.
With CN1CCN(C(=O)Cn2cc(C(=O)Nc3ccc(F)cc3)ccc2=O)C(c2ccccc2)C1 (stereo not shown) [CBK286050] the “% of control remaining” value was 140.257%.
CN(C)CC(=O)N/N=C/c1ccsc1 [CBK008256C] was tested, and the “% of control remaining” value was 99.6203%.
For O=C(CSc1nnnn1C1CC1)c1cc2ccccc2o1 [CBK297158], the “% of control remaining” value was 117.67%.
For Cc1ccc(S(=O)(=O)N[C@H]2CO[C@H]3[C@@H]2OC[C@@H]3n2nnnc2Oc2ccccc2)cc1 [CBK289485], the “% of control remaining” value was 124.117%.
For c1cc(-c2n[nH]c(C3CCNCC3)n2)ccn1 [CBK104676C], the “% of control remaining” value was 119.786%.
With O=C(c1ccccc1)N1C[C@@H](c2ccsc2)[C@@H]2CN(Cc3ccccc3Cl)CC[C@@H]21 [CBK285613] the “% of control remaining” value was 68.4162%.
For FC(F)(F)c1cccnc1OCCN1CCOCC1 [CBK113456], the “% of control remaining” value was 133.799%.
With Cc1ccc(Nc2cc(-c3cccnc3)ncn2)cc1NS(C)(=O)=O [CBK091147] the “% of control remaining” value was 170.052%.
COc1cccc2cc(C(=O)NCc3cccs3)oc12 [CBK149799] was tested, and the “% of control remaining” value was 97.8554%.
For CCC1(CC)OC(N[C@@H](C)c2ccc(Br)cc2)=NC1=O [CBK126665], the “% of control remaining” value was 88.7562%.
Cc1oc(C)c(C(=O)Nc2cccc(C(=O)O)c2)c1C(=O)Nc1cccc(C(=O)O)c1 [CBK266472] was tested, and the “% of control remaining” value was 168.778%.
With CC(Oc1cccc(Br)c1)C(=O)NCCC(=O)O (stereo not shown) [CBK268024] the “% of control remaining” value was 132.955%.
In the case of CCOC(=O)Cn1[nH]c(CO)c(Cc2c(Cl)cccc2Cl)c1=O [CBK103580], the “% of control remaining” value is reported as 114.158%.
COc1ncc(-c2nccnc2OCCc2c[nH]c3ccccc23)c(OC)n1 [CBK106743] was tested, and the “% of control remaining” value was 165.451%.
In the case of COc1ccc(-c2cnccc2-n2ccnc2)cn1 [CBK177147], the “% of control remaining” value is reported as 144.265%.
Cc1cc(C)nc(NC(=O)OCc2cc(C)nc(C)c2)c1 [CBK138231] was tested, and the “% of control remaining” value was 131.549%.
CC(C)Nc1cccnc1N1CCN(C(=O)c2cc3cc(NS(=O)(=O)CCc4ccncc4)ccc3[nH]2)CC1 [CBK012661] was tested, and the “% of control remaining” value was 115.537%.
With COc1ccc(C(=O)N2CCN(C)CC2)cc1Nc1cncc(-c2cc3ccccc3o2)n1 [CBK155266T] the “% of control remaining” value was 100%.
With Cc1cc(C(=O)N2CCCC(c3ccc(Cc4ccc(Cl)cc4)cn3)C2)nc(N(C)C)n1 (stereo not shown) [CBK286036] the “% of control remaining” value was 42.3368%.
In the case of Nc1ncc(-c2cccc3cccnc23)nc1NCc1ccncc1 [CBK063622], the “% of control remaining” value is reported as 163.75%.
COc1cncc(-c2cnc(N)c(NCc3cccnc3)n2)c1 [CBK063531] was tested, and the “% of control remaining” value was 150.294%.
With CCOc1cccc2cc(-c3cc(=O)oc4cc(C)c(O)cc34)oc12 [CBK300517] the “% of control remaining” value was 109.189%.
With CCc1cnc(CN(C)C2CCN(CC(=O)NCc3ccco3)C2)o1 (stereo not shown) [CBK306137] the “% of control remaining” value was 121.712%.
With Cc1ccc(CCn2nc(C)cc2C)cn1 [CBK021375] the “% of control remaining” value was 122.806%.
With COc1ccccc1Cc1cccc(C2CCN(C(=O)Cc3c[nH]c4ccccc34)CC2)n1 [CBK286226] the “% of control remaining” value was 106.828%.
COC(=O)c1sccc1Oc1ccc([N+](=O)[O-])cn1 [CBK066826] was tested, and the “% of control remaining” value was 103.756%.
With CC(C)Nc1nc2ccccc2nc1SCCC(=O)O [CBK107858] the “% of control remaining” value was 118.661%.
In the case of COc1c(Cl)cc(Cl)cc1C(=O)NC(=S)Nc1sc2c(c1C#N)CCCC2 [CBK268741], the “% of control remaining” value is reported as 153.476%.
With COc1ccc(C(=O)N2CCC3(CCCN(CCN(C)C)C3)C2)cc1OC (stereo not shown) [CBK132873] the “% of control remaining” value was 117.272%.
For O=C(NCCCO)c1c(O)c2ccccc2[nH]c1=O [CBK018215], the “% of control remaining” value was 107.321%.
In the case of CC(CNC(=O)c1cncc(O)c1)NC(=O)c1cncc(O)c1 (stereo not shown) [CBK278174], the “% of control remaining” value is reported as 111.658%.
For CCOC(=O)c1c(NC(=O)CN2CCCCC2)sc2c1CCCC2=O [CBK263224], the “% of control remaining” value was 112.891%.
In the case of CC(C)(C)OC(=O)NC1CCN(C(=O)CCC(=O)O)CC1 [CBK286604], the “% of control remaining” value is reported as 129.005%.
CC1CCN(S(=O)(=O)c2cccc(C(=O)NNC(=O)c3ccco3)c2)CC1 [CBK266796] was tested, and the “% of control remaining” value was 138.182%.
With Cc1scc(C(=O)NN2CCN(C)CC2)c1-c1ccccc1 [CBK268115] the “% of control remaining” value was 147.534%.
For O=C1CC(C(=O)NCc2ccc(-c3csnn3)cc2)c2ccccc21 (stereo not shown) [CBK149301], the “% of control remaining” value was 92.5139%.
In the case of Oc1cccc(OCCOc2cccc(C(F)(F)F)n2)c1 [CBK115797], the “% of control remaining” value is reported as 98.6778%.
In the case of COc1ccc(C(C)C)cc1-c1cnc2nc(N)ccc2c1 [CBK081216], the “% of control remaining” value is reported as 74.4813%.
With N#Cc1ccc(OCCO)cc1 [CBK000723] the “% of control remaining” value was 96.0816%.
With Cn1c(SCC(=O)c2ccc(Cl)cc2)nnc1-c1cnccc1C(F)(F)F [CBK067698] the “% of control remaining” value was 79.216%.
With CCN1CCN(CCCOc2ccccc2Cc2ccccc2)CC1 [CBK267379G] the “% of control remaining” value was 119.902%.
CC[C@@H]1COCCN1C(=O)c1sc2ccccc2c1Cl [CBK103641] was tested, and the “% of control remaining” value was 131.441%.
With Cc1ccccc1CSc1nc2ccc([N+](=O)[O-])cc2[nH]1 [CBK267879] the “% of control remaining” value was 95.3272%.
CSCCCNC(=O)N1CCNC(=O)C1 [CBK155848] was tested, and the “% of control remaining” value was 93.7087%.
